This passage reports binding results from publication doi:10.1101/2023.07.25.550451.

Amino acid sequences for entries named in this document (tags omitted). A change or cut given only in a name is not applied to a line headed by its entry. Chains listed by the source or under a name are the forms on record and can include a tag or linker.
UniProt Q969W3: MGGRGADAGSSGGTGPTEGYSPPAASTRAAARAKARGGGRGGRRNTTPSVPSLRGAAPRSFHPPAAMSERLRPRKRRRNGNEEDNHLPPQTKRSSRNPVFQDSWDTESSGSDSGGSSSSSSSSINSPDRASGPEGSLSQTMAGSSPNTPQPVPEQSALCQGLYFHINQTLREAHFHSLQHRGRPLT
GST-FAM104A isoform 1 (Q969W3, form named): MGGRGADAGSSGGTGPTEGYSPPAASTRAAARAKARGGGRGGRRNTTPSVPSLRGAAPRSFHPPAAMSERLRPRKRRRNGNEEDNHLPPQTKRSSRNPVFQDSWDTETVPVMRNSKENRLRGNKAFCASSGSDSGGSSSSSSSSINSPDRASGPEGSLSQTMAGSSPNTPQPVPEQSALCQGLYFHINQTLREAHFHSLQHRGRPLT

No constants are given. Whether binding was seen depends on the method and setting. Tags and fused reporters may be left off the sequences shown.

In assay [1] the target is GST-FAM104A isoform 1 (human) (UniProt Q969W3). Nature of the assay: pull-down.
Assay [2] deals with GST-FAM104A isoform 2 (human) (UniProt Q969W3). Nature of the assay: pull-down.

B1: His6-UBXN7 (protein, UniProt O94888 1-489)
chain: MAAHGGSAASSALKGLIQQFTTITGASESVGKHMLEACNNNLEMAVTMFLDGGGIAEEPSTSSASVSTVRPHTEEEVRAPIPQKQEILVEPEPLFGAPKRRRPARSIFDGFRDFQTETIRQEQELRNGGAIDKKLTTLADLFRPPIDLMHKGSFETAKECGQMQNKWLMINIQNVQDFACQCLNRDVWSNEAVKNIIREHFIFWQVYHDSEEGQRYIQFYKLGDFPYVSILDPRTGQKLVEWHQLDVSSFLDQVTGFLGEHGQLDGLSSSPPKKCARSESLIDASEDSQLEAAIRASLQETHFDSTQTKQDSRSDEESESELFSGSEEFISVCGSDEEEEVENLAKSRKSPHKDLGHRKEENRRPLTEPPVRTDPGTATNHQGLPAVDSEILEMPPEKADGVVEGIDVNGPKAQLMLRYPDGKREQITLPEQAKLLALVKHVQSKGYPNERFELLTNFPRRKLSHLDYDITLQEAGLCPQETVFVQERN
In the case of B1, the binding entry in assay [1] and in assay [2] was “no binding” in each case.

B2: His6-p47 (protein, UniProt Q9UNZ2 1-370)
chain: MAAERQEALREFVAVTGAEEDRARFFLESAGWDLQIALASFYEDGGDEDIVTISQATPSSVSRGTAPSDNRVTSFRDLIHDQDEDEEEEEGQRFYAGGSERSGQQIVGPPRKKSPNELVDDLFKGAKEHGAVAVERVTKSPGETSKPRPFAGGGYRLGAAPEEESAYVAGEKRQHSSQDVHVVLKLWKSGFSLDNGELRSYQDPSNAQFLESIRRGEVPAELRRLAHGGQVNLDMEDHRDEDFVKPKGAFKAFTGEGQKLGSTAPQVLSTSSPAQQAENEAKASSSILIDESEPTTNIQIRLADGGRLVQKFNHSHRISDIRLFIVDARPAMAATSFILMTTFPNKELADESQTLKEANLLNAVIVQRLT
For the molecule B2, the binding result in assay [1] and in assay [2] was “no binding” in each case.
